Counter-ions that a name gives are not always drawn. The name of at least one read-out is uncertain.
System: rat's isolated duodenum
Test: Spasmolytic activity on isolated duodenum, barium chloride contraction (Magnus)
Details: Tyrode solution, 38° C, tested beside the compound of the same line
Procedure: Spasmolytic activity was studied on a rat's isolated duodenum maintained in a survival medium of an aerated Tyrode solution heated to 38° C, according to the technique of Magnus (Magnus R. -- Archiv. ges. Physiol., 1905, 180, 1-71).
The contracting agent was barium chloride, the reference antagonist agent being papaverine hydrochloride (R). The average activity of compounds of formula I (X) compared to that of the reference agent were expressed by calculating the ratio of 50 efficient doses (ED 50) determined graphically on logarithmic paper: [formula]
For example: a substance having a relative activity expressed by the figure 2 has an activity equal to twice that of papaverine hydrochloride.

Structure (SMILES): COc1ccc(Cc2nccc3cc(OC)c(OC)cc23)cc1OC [papaverine hydrochloride, reference compound]
- ED 50 (R), spasmolytic activity of reference: 5.25 µg/mL
